The record followed here is PubChem BioAssay AID248 (DTP/NCI, 2004).

The list shows only some results of the screen, not a fair sample: it gathers some chemical classes. Other doses and runs of a compound may be missing. T/C: endpoint of the treated group in % of that of the vehicle group. Where survival is the endpoint, this PubChem deposit counts one and a half times the control or more as active, and values a quarter to a half above the control carry no call in these data; other NCI protocols may use other cut-offs. Some T/C values are marked as having no survivor count here; that says nothing about deaths at the dose. Schedules are NCI's codes, read here as Q, the interval in days (D) or hours (H), X, the number of doses. Some schedules carry Z or #; the key to these is not given. Some entries hold several experiments; their values stand side by side, smallest first.

In this test the test system is L1210 leukemia ip in BDF1 mice, survival T/C. Kind of test: NCI In Vivo Anticancer Drug Screen. Data for tumor model L1210 Leukemia (intraperitoneal) in B6D2F1 (BDF1) mice. The following applies: T/C endpoint: mean survival time, higher T/C = longer survival.
The mark [1] stands for this setting: dose: 100.0 mg/kg/injection, schedule: Q01DX001 (ip), vehicle: saline.

On to `CC(C)N1CCC(COC(=O)C(O)(c2ccccc2)c2ccccc2)C1` (stereo not drawn), for which the T/C (dose: 12.0 mg/kg/injection, schedule: Q04DX003 (ip), vehicle: Klucel (hydroxypropylcellulose) (HPC)) is 103 % of control [survivor count not shown]; the T/C (dose: 25.0 mg/kg/injection, schedule: Q04DX003 (ip), vehicle: Klucel (hydroxypropylcellulose) (HPC)) was 95 % of control [survivor count not shown]; the T/C (dose: 50.0 mg/kg/injection, schedule: Q04DX003 (ip), vehicle: Klucel (hydroxypropylcellulose) (HPC)) was 98 % of control [survivor count not shown]; the T/C (dose: 100.0 mg/kg/injection, schedule: Q04DX003 (ip), vehicle: Klucel (hydroxypropylcellulose) (HPC)) was 88 % of control [survivor count not shown].
On to `CCNCCCl`, for which the T/C is 98 % of control [survivor count not shown] under setting [1]; 102 % of control [survivor count not shown] (dose: 200.0 mg/kg/injection, schedule: Q01DX001 (ip), vehicle: saline); 111 % of control [survivor count not shown] (dose: 400.0 mg/kg/injection, schedule: Q01DX001 (ip), vehicle: saline).
In the case of `CN(C)CC1C2CCC(C2)C1OC(=O)C(O)(c1ccccc1)c1ccccc1` (stereo not drawn), the T/C was 98 % of control [survivor count not shown] (dose: 25.0 mg/kg/injection, schedule: Q04DX003 (ip), vehicle: saline with Tween-80); 96 % of control [survivor count not shown] (dose: 50.0 mg/kg/injection, schedule: Q04DX003 (ip), vehicle: saline with Tween-80); 102 % of control [survivor count not shown] (dose: 100.0 mg/kg/injection, schedule: Q04DX003 (ip), vehicle: saline with Tween-80).
In the case of `CN(CCBr)CCBr`, the T/C is, setting by setting: (dose: 0.01 mg/kg/injection, schedule: Q01DX015 (ip), vehicle: saline) 116 % of control [survivor count not shown]; (dose: 0.02 mg/kg/injection, schedule: Q01DX015 (ip), vehicle: saline) 132 % of control [survivor count not shown]; (dose: 0.04 mg/kg/injection, schedule: Q01DX015 (ip), vehicle: saline) 122 % of control [survivor count not shown]; (dose: 0.08 mg/kg/injection, schedule: Q01DX015 (ip), vehicle: saline) 143 % of control [survivor count not shown]; (dose: 0.08 mg/kg/injection, schedule: Q01DX Z (ip), vehicle: saline) 122 % of control [survivor count not shown]; (dose: 0.16 mg/kg/injection, schedule: Q01DX015 (ip), vehicle: saline) 135 % of control [survivor count not shown]. Moreover, the T/C reads like this: (dose: 0.16 mg/kg/injection, schedule: Q01DX Z (ip), vehicle: saline) 125 % of control [survivor count not shown]; (dose: 0.31 mg/kg/injection, schedule: Q01DX015 (ip), vehicle: saline) 120 % of control [survivor count not shown]; (dose: 0.31 mg/kg/injection, schedule: Q01DX Z (ip), vehicle: saline) 153 % of control [survivor count not shown]; (dose: 0.62 mg/kg/injection, schedule: Q01DX015 (ip), vehicle: saline) 88 % of control [survivor count not shown]; (dose: 0.62 mg/kg/injection, schedule: Q01DX Z (ip), vehicle: saline) 154 % of control [survivor count not shown].
On to `FC(F)(F)c1cccc(CN(CCCl)CCCl)c1`, for which the T/C is 94 % of control [survivor count not shown] (dose: 12.5 mg/kg/injection, schedule: Q01DX001 (ip), vehicle: saline); 100 % of control [survivor count not shown] (dose: 25.0 mg/kg/injection, schedule: Q01DX001 (ip), vehicle: saline); 111 % of control [survivor count not shown] (dose: 50.0 mg/kg/injection, schedule: Q01DX001 (ip), vehicle: saline); 116 % of control [survivor count not shown] under setting [1].
Take `CN1CCC(OC(=O)C(O)(c2ccccc2)C2CCCC2)C1` (stereo not drawn): the T/C runs as follows: (dose: 12.5 mg/kg/injection, schedule: Q01DX009 (ip), vehicle: saline) 95 % of control [survivor count not shown]; (dose: 25.0 mg/kg/injection, schedule: Q01DX009 (ip), vehicle: saline) 102 % of control [survivor count not shown]; (dose: 25.0 mg/kg/injection, schedule: Q04DX003 (ip), vehicle: saline) 100 % of control [survivor count not shown]; (dose: 50.0 mg/kg/injection, schedule: Q01DX009 (ip), vehicle: saline) 92 % of control [survivor count not shown]; (dose: 50.0 mg/kg/injection, schedule: Q04DX003 (ip), vehicle: saline) 92 % of control [survivor count not shown]; (dose: 100.0 mg/kg/injection, schedule: Q01DX009 (ip), vehicle: saline) 103 % of control [survivor count not shown]. Also, the T/C is 102 % of control [survivor count not shown] (dose: 100.0 mg/kg/injection, schedule: Q04DX003 (ip), vehicle: saline); 95 % of control [survivor count not shown] (dose: 200.0 mg/kg/injection, schedule: Q01DX009 (ip), vehicle: saline); 100 % of control [survivor count not shown] (dose: 200.0 mg/kg/injection, schedule: Q04DX003 (ip), vehicle: saline).
For `ClCCCC(Cl)CNCCCl` (stereo not drawn), the T/C is 113 % of control [survivor count not shown] (dose: 0.1 mg/kg/injection, schedule: Q01DX Z (ip), vehicle: methylcellulose (MC)); 107 [survivor count not shown] and 113 % of control [survivor count not shown] (dose: 0.6 mg/kg/injection, schedule: Q01DX Z (ip), vehicle: methylcellulose (MC)); 108 % of control [survivor count not shown] (dose: 1.0 mg/kg/injection, schedule: Q01DX009 (ip), vehicle: saline); 111 [survivor count not shown] and 117 % of control [survivor count not shown] (dose: 1.0 mg/kg/injection, schedule: Q01DX Z (ip), vehicle: methylcellulose (MC)); 100 % of control [survivor count not shown] (dose: 1.0 mg/kg/injection, schedule: Q04DX003 (ip), vehicle: saline); 107 [survivor count not shown], 108 [survivor count not shown], 117 % of control [survivor count not shown] (dose: 1.5 mg/kg/injection, schedule: Q01DX Z (ip), vehicle: methylcellulose (MC)). In addition, the T/C is, setting by setting: (dose: 2.0 mg/kg/injection, schedule: Q01DX009 (ip), vehicle: saline) 102 % of control [survivor count not shown]; (dose: 2.0 mg/kg/injection, schedule: Q04DX003 (ip), vehicle: saline) 104 % of control [survivor count not shown]; (dose: 2.2 mg/kg/injection, schedule: Q01DX Z (ip), vehicle: methylcellulose (MC)) 119 [survivor count not shown], 124 [survivor count not shown], 125 % of control [survivor count not shown]; (dose: 4.0 mg/kg/injection, schedule: Q01DX009 (ip), vehicle: saline) 96 % of control [survivor count not shown]; (dose: 4.0 mg/kg/injection, schedule: Q04DX003 (ip), vehicle: saline) 115 % of control [survivor count not shown]; (dose: 8.0 mg/kg/injection, schedule: Q01DX009 (ip), vehicle: saline) 105 % of control [survivor count not shown]. Further, the T/C (dose: 8.0 mg/kg/injection, schedule: Q04DX003 (ip), vehicle: saline) was 115 % of control [survivor count not shown].
As for `CCN(CC)CCOC(=O)C(O)(c1ccccc1)c1ccccc1C` (stereo not drawn), the T/C (dose: 75.0 mg/kg/injection, schedule: Q01DX001 (ip), vehicle: saline) was 100 % of control [survivor count not shown].
